Source: patent US11358931B2, “Selective androgen receptor modulators (SARMs) and uses thereof” (priority 2007, dated 2022)
At least one structure is not confirmed: it was looked up by name or label, or the drawing left a doubt.

What was measured:
Type in all cases: cell-based
Details in all cases: relative to reference agonist
hPPARγ = target: T1, hPPARγ (Homo sapiens, UniProt P37231); assay: Co-transfection assay, other nuclear receptors: hPPARγ
T1 construct: expressed in transfected cells
T1 sequence (P37231 1-505): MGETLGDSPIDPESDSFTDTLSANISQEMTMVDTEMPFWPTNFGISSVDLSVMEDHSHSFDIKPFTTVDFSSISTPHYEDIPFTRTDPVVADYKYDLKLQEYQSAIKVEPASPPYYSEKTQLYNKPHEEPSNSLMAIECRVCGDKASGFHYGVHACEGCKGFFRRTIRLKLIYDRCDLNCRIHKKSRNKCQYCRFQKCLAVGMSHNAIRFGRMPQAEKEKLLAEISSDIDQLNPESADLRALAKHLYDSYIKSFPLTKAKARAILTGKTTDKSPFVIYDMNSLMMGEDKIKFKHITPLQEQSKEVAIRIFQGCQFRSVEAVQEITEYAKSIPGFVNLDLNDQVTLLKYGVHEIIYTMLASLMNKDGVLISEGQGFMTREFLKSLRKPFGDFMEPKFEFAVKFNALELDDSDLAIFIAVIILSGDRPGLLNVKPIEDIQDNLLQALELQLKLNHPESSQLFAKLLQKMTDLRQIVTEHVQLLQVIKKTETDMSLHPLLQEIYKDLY

hRARα = target: T2, hRARα (Homo sapiens, UniProt P10276); assay: Co-transfection assay, other nuclear receptors: hRARα
T2 construct: expressed in transfected cells
T2 sequence (P10276 1-462): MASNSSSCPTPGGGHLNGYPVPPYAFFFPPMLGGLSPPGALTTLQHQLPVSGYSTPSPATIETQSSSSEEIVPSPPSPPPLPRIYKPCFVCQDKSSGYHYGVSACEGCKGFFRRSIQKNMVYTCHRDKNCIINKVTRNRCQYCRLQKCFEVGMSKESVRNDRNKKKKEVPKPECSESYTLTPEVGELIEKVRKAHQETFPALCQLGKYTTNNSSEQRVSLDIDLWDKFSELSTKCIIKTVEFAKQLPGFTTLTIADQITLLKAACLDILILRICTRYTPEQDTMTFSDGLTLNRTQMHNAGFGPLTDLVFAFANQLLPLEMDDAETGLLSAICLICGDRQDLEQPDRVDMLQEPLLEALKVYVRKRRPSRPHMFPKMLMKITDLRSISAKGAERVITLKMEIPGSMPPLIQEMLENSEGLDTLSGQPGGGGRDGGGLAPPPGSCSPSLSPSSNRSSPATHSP

hGR = target: T3, hGR (Homo sapiens, UniProt P04150); assay: Co-transfection assay, other nuclear receptors: hGR
T3 construct: expressed in transfected cells
T3 sequence (P04150 1-777): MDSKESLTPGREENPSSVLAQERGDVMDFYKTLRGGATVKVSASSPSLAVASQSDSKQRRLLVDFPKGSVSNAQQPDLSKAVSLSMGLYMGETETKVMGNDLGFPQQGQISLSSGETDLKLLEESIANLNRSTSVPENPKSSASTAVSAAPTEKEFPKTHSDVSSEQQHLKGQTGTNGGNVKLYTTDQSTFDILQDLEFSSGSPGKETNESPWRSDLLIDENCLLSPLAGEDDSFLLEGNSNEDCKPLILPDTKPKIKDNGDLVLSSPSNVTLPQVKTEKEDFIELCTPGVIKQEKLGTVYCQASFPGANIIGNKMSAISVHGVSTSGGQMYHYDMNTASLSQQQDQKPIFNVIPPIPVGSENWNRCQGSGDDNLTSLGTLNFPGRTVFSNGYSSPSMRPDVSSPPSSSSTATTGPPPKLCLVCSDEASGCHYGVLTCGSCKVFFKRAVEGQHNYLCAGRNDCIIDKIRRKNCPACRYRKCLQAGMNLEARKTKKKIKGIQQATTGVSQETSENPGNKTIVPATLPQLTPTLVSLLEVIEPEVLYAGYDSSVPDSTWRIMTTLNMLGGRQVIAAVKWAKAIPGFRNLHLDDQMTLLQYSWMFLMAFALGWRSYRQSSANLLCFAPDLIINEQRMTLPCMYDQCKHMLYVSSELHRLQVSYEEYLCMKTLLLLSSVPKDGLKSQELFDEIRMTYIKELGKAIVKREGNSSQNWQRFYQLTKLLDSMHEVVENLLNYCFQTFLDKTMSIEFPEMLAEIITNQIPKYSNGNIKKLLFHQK
Excerpt: An exemplary co-transfection assay is the luciferase reporter assay (Evans, Science 240: 889-895 (1988), Berger et al., J Steroid Biochem Mol Biol 41: 733-738 (1992)) can be used to establish the ability of a compound of formulae I, II or III to activate (agonist activity) or repress (antagonist activity) the ability of the human androgen receptor (hAR) to induce gene expression. A human cell line containing endogenously expressed hAR (e.g., MDA-MB-453 cells, derived from a human mammary carcinoma, American Tissue Type Culture Collection [ATCC] HTB 131) can be transfected with an androgen responsive luciferase reporter plasmid to measure the level of cross-reactivity of the compound on other nuclear receptors (such as the glucocorticoid receptor (GR), estrogen receptor (ER), mineralocorticoid receptor (MR), progesterone receptor (PR), retinoid receptor (RAR), retinoid X receptor (RXR), peroxisome proliferator activating receptors alpha (PPARα), gamma (PPARγ) and delta (PPARδ), liver X receptor (LXR), farnesyl X receptor (FXR) and the pregnane X receptor (PXR)). In the assay, luciferase reporter plasmids containing the cDNA for firefly luciferase (LUC) under the control of a conditional promoter containing hormone response elements recognized by the appropriate nuclear receptor are co-transfected into cells with the nuclear receptor expression plasmid. […]

Measured: agonist activity (transactivation)

N#Cc1ccc(N2CCC[C@@H]2[C@@H](O)C(F)(F)F)cc1C(F)(F)F [Compound 102, R,R-4-(2-(1-Hydroxyl-2,2,2-trifluoroethyl)-pyrrolidinyl)-2-trifluoromethyl-benzonitrile]
did not transactivate: all assays above
